In assay [1] the target is KSHV latency associated nuclear antigen, Flag-tagged (LANA-Flag) (Kaposi's sarcoma-associated herpesvirus (KSHV)) (UniProt Q9QR71). The assay can be described thus: co-IP; KMM cells lentivirally transduced with SERBP1-HA and the tagged partner; lysate immunoprecipitated by the partner's tag (anti-Myc or anti-Flag antibody) on magnetic beads at 4°C overnight, washed with TBST, Western blotting.

Amino acid sequences for entries named in this document (tags omitted).
UniProt Q9QR71: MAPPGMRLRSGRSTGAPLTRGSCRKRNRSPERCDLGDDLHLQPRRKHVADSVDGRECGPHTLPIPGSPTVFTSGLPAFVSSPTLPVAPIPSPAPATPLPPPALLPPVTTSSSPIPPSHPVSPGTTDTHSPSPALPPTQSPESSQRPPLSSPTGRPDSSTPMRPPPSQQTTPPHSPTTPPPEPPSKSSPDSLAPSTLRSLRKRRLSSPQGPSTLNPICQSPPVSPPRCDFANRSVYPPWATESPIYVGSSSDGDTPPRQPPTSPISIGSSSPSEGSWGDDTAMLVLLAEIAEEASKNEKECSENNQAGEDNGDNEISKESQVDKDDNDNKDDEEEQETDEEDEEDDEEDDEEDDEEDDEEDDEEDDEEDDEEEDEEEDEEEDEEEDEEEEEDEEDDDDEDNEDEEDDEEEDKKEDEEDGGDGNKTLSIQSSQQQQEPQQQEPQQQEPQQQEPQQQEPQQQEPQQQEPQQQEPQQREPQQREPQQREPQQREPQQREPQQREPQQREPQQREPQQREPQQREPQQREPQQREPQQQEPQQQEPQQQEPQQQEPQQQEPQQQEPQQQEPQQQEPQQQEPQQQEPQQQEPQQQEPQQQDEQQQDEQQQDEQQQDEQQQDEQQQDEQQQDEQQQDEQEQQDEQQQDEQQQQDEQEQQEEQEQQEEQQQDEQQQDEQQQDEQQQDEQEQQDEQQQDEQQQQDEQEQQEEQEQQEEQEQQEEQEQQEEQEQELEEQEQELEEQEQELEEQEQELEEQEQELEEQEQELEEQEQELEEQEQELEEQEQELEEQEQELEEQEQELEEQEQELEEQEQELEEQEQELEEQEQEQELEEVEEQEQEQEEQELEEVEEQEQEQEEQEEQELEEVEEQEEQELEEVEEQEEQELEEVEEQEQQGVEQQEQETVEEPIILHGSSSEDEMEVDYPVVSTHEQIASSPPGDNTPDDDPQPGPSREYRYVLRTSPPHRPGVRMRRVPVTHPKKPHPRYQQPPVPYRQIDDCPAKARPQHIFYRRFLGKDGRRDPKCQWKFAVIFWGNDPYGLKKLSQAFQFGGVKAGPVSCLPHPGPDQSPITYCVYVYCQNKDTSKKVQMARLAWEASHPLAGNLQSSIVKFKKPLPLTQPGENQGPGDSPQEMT

In assay [2] the target is T1, KSHV viral cyclin, Myc-tagged (vCyclin-Myc) (Kaposi's sarcoma-associated herpesvirus (KSHV)) (UniProt Q77Q36).
T1 sequence: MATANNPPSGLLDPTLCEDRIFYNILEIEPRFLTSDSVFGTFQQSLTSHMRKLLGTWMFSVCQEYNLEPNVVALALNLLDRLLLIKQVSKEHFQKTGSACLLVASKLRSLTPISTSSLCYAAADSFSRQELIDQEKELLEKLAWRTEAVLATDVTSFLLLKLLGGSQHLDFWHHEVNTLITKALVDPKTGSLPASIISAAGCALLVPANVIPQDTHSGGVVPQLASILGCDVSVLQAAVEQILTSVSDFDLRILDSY
The description is as above.

No constants are given. Whether binding was seen depends on the method and setting. In cells and extracts the contact can be indirect. Sequences can lack the tags named with a protein.

B1: SERPINE1 mRNA binding protein 1, HA-tagged (SERBP1-HA) (protein, UniProt Q6AXS5 1-407)
chain: MPGHLQEGFGCVVTNRFDQLFDDESDPFEVLKAAENKKKEAGGGGVGGPGAKSAAQAAAQTNSNAAGKQLRKESQKDRKNPLPPSVGVADKKEETQPPVALKKEGIRRVGRRPDQQLQGDGKIIDRRPERRPPRERRFEKPLEEKGEGGEFSVDRPIIERPIRGRGGLGRGRGGRGRGMGRGDGFDSRGKREFDRHSGSDRSSFSHYSGLKHEDKRGGSGSHNWGTVKDELTESPKYIQKQISYNCSDLEQSNVTEETPEGEEHPVADTENKENEVEEVKEEGPKEMTLDEWKAIQNKDRAKVEFNIRKPNEGADGQWKKGFVLHKSKSEEAHAEDSVMDHHFRKPANDITSQLEINFGDLGRPGRGGRGGRGGRGRGGRPNRGSRTDKSSASAPDVDDPEAFPALA
As to B1, the binding entry in assay [1] and in assay [2] was “no binding” each time.

Source of the values: PMC10959363.
